Article doi:10.1101/447904
No constants are given. Whether binding was seen depends on the method and setting. In cells and extracts the contact can be indirect. Here binding means that the protein was enriched with, or labelled near, the bait; the list need not be complete.

The chains behind the UniProt entries cited, without tags or fusion partners.
UniProt P26651: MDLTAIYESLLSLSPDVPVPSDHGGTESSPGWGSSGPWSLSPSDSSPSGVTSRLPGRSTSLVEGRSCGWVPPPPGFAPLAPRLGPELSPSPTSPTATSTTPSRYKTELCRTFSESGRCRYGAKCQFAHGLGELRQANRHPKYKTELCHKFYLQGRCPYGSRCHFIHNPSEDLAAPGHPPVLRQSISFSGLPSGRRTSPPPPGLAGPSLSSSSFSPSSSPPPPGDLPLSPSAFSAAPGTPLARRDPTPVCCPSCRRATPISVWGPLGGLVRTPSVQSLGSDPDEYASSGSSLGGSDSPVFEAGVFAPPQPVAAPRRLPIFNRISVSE
UniProt P11940: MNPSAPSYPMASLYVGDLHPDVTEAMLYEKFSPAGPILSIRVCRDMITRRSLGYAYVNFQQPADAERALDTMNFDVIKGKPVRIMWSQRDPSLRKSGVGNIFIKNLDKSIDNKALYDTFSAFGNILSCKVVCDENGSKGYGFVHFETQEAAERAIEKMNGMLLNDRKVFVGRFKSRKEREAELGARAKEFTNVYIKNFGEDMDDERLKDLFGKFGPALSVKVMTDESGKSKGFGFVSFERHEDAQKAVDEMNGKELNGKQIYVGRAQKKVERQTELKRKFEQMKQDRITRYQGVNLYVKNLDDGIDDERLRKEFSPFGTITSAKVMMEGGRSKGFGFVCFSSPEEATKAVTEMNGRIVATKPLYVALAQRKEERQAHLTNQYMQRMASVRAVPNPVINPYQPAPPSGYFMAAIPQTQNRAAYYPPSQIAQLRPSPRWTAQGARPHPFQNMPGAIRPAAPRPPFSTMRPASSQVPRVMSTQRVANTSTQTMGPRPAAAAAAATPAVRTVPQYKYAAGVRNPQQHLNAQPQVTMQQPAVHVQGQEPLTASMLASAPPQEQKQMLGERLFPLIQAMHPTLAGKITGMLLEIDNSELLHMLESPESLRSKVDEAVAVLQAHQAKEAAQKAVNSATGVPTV

Target: GFP-TTP (ZFP36, Tristetraprolin, with an N-terminal GFP-tag) (UniProt P26651)
Assay: affinity purification with mass spectrometry

Molecule: PABC1 (from UniProt P11940 1-636)
- binding: binds

B1: UPF1 (protein, UniProt Q92900 1-1129)
chain: MSVEAYGPSSQTLTFLDTEEAELLGADTQGSEFEFTDFTLPSQTQTPPGGPGGPGGGGAGGPGGAGAGAAAGQLDAQVGPEGILQNGAVDDSVAKTSQLLAELNFEEDEEDTYYTKDLPIHACSYCGIHDPACVVYCNTSKKWFCNGRGNTSGSHIVNHLVRAKCKEVTLHKDGPLGETVLECYNCGCRNVFLLGFIPAKADSVVVLLCRQPCASQSSLKDINWDSSQWQPLIQDRCFLSWLVKIPSEQEQLRARQITAQQINKLEELWKENPSATLEDLEKPGVDEEPQHVLLRYEDAYQYQNIFGPLVKLEADYDKKLKESQTQDNITVRWDLGLNKKRIAYFTLPKTDSGNEDLVIIWLRDMRLMQGDEICLRYKGDLAPLWKGIGHVIKVPDNYGDEIAIELRSSVGAPVEVTHNFQVDFVWKSTSFDRMQSALKTFAVDETSVSGYIYHKLLGHEVEDVIIKCQLPKRFTAQGLPDLNHSQVYAVKTVLQRPLSLIQGPPGTGKTVTSATIVYHLARQGNGPVLVCAPSNIAVDQLTEKIHQTGLKVVRLCAKSREAIDSPVSFLALHNQIRNMDSMPELQKLQQLKDETGELSSADEKRYRALKRTAERELLMNADVICCTCVGAGDPRLAKMQFRSILIDESTQATEPECMVPVVLGAKQLILVGDHCQLGPVVMCKKAAKAGLSQSLFERLVVLGIRPIRLQVQYRMHPALSAFPSNIFYEGSLQNGVTAADRVKKGFDFQWPQPDKPMFFYVTQGQEEIASSGTSYLNRTEAANVEKITTKLLKAGAKPDQIGIITPYEGQRSYLVQYMQFSGSLHTKLYQEVEIASVDAFQGREKDFIILSCVRANEHQGIGFLNDPRRLNVALTRARYGVIIVGNPKALSKQPLWNHLLNYYKEQKVLVEGPLNNLRESLMQFSKPRKLVNTINPGARFMTTAMYDAREAIIPGSVYDRSSQGRPSSMYFQTHDQIGMISAGPSHVAAMNIPIPFNLVMPPMPPPGYFGQANGPAAGRGTPKGKTGRGGRQKNRFGLPGPSQTNLPNSQASQDVASQPFSQGALTQGYISMSQPSQMSQPGLSQPELSQDSYLGDEFKSQIDVALSQDSTYQGERAYQHGGVTGLSQY
- binding: binds
